According to paper PMC8254492:
These are yes or no findings as the source states them, for the method shown. Binding seen in cells or lysates may run through a third protein. Some entries that bind do so weakly or less than the wild type.

Molecular target: T1, BLUE LIGHT … 1 (BLUS1), full-length (Arabidopsis thaliana) (UniProt O23304)
T1 sequence: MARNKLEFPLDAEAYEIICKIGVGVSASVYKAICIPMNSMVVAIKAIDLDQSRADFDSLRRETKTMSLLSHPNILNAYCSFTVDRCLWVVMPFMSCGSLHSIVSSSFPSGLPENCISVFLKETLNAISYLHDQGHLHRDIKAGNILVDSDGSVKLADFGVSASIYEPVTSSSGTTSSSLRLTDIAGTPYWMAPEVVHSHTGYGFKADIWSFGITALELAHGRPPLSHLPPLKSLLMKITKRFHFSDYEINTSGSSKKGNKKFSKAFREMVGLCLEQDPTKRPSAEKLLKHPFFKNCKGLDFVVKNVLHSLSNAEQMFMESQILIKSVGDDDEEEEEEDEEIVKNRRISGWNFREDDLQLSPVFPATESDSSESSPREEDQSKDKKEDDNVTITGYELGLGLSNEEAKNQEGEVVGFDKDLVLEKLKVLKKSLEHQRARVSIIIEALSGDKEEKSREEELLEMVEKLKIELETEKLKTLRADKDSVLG
Experiment: pull-down; in vitro pull-down of BHP with full-length and C-terminal truncated BLUS1; bait, buffer and conditions not shown (Supplemental Figure S7A)

B1: BLUE LIGHT-… H+-ATPASE PHOSPHORYLATION (BHP) (protein, UniProt Q93Z30 1-459)
chain: MEEDYQQPRFTIGRQSSMAPEKIPEPSVHSEEEVFEDGEEIDGGVRLMYLANEGDIEGIKELIDSGIDANYRDIDDRTALHVAACQGLKDVVELLLDRKAEVDPKDRWGSTPFADAIFYKNIDVIKILEIHGAKHPMAPMHVKTAREVPEYEINPSELDFTQSKEITKGTYCMAMWRGIQVAVKKLDDEVLSDDDQVRKFHDELALLQRLRHPNIVQFLGAVTQSNPMMIVTEYLPRGDLRELLKRKGQLKPATAVRYALDIARGMSYLHEIKGDPIIHRDLEPSNILRDDSGHLKVADFGVSKLVTVKEDKPFTCQDISCRYIAPEVFTSEEYDTKADVFSFALIVQEMIEGRMPFAEKEDSEASEAYAGKHRPLFKAPSKNYPHGLKTLIEECWHEKPAKRPTFREIIKRLESILHHMGHKRQWRMRPLTCFQNFEHKKKHNWDLSSHDGSSSGSHL
Q: With B1 as the binder, how does the binding read?
A: binds
